Where a name gives a salt, the structure may show the parent alone. ± gives the uncertainty stated by the source. This is one part of the list. Baselines shift from plate to plate; read single values as rough.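 Larvae carried a heat-shock-induced fluorescent stripe in rod outer segments, set at 6 dpf; the shedding distance runs from this stripe to the outer segment tip, measured in confocal stacks, about three fish per compound. The controls got 0.2% DMSO vehicle, and the paper flagged compounds with at least a 20% change against the same-week control and p < 0.001 (Dunnett test on mixed-effects models).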
Columns and labels:
[1] = test system: Danio rerio larva rod photoreceptor outer segment; assay: rod outer segment growth distance Dg, difference from same-week DMSO control mean; higher = more outer segment growth; details: 20 µM; treatment time: 4 days (6-10 dpf)
[2] = test system: Danio rerio larva rod photoreceptor outer segment; assay: rod outer segment shedding distance Ds, difference from same-week DMSO control mean; higher = less outer segment shedding; details: 20 µM; treatment time: 4 days (6-10 dpf)

C#C[C@]1(O)CC[C@H]2[C@@H]3CCC4=CC(=O)CC[C@@H]4[C@H]3CC[C@@]21CC [Levonorgestrel]
rod outer segment growth distance Dg [1]: -0.69 ± 0.28 um | rod outer segment shedding distance Ds [2]: 0.35 ± 0.17 um

CO/N=C(\C(=O)N[C@@H]1C(=O)N2C(C(=O)O)=C(CSC(=O)c3ccco3)CS[C@H]12)c1csc(N)n1 [Ceftiofur HCl]
rod outer segment growth distance Dg [1]: -0.94 ± 0.2 um | rod outer segment shedding distance Ds [2]: -0.7 ± 0.19 um

CC[C@H]1OC(=O)[C@H](C)[C@@H](O[C@H]2C[C@@](C)(OC)[C@@H](O)[C@H](C)O2)[C@H](C)[C@@H](O[C@@H]2O[C@H](C)C[C@H](N(C)C)[C@H]2O)[C@](C)(O)C[C@@H](C)/C(=N\OCOCCOC)[C@H](C)[C@@H](O)[C@]1(C)O [Roxithromycin]
rod outer segment growth distance Dg [1]: -0.48 ± 0.24 um | rod outer segment shedding distance Ds [2]: -0.32 ± 0.28 um

CC(C)N(CCCNC(=O)Nc1ccc(C(C)(C)C)cc1)C[C@H]1O[C@@H](n2cc(Br)c3c(N)ncnc32)[C@H](O)[C@@H]1O
rod outer segment growth distance Dg [1]: -0.7 ± 0.22 um | rod outer segment shedding distance Ds [2]: -0.46 ± 0.15 um

O=c1c(O)c(-c2cc(O)c(O)c(O)c2)oc2cc(O)cc(O)c12 [Myricetin]
rod outer segment growth distance Dg [1]: 0.3 ± 0.35 um | rod outer segment shedding distance Ds [2]: -0.06 ± 0.35 um

Cc1nc(-c2ccc(OCC(C)C)c(C#N)c2)sc1C(=O)O [Febuxostat]
rod outer segment growth distance Dg [1]: -0.22 ± 0.14 um | rod outer segment shedding distance Ds [2]: -0.21 ± 0.16 um

O=C(Nc1ccccc1)Nc1ccc(-c2ccc(C(=O)[C@@H]3CCC[C@H]3C(=O)O)cc2)cc1
rod outer segment growth distance Dg [1]: -0.95 ± 0.23 um | rod outer segment shedding distance Ds [2]: -0.15 ± 0.13 um

O=C(NC1CCNCC1)c1n[nH]cc1NC(=O)c1c(Cl)cccc1Cl
rod outer segment growth distance Dg [1]: -1.66 ± 0.18 um | rod outer segment shedding distance Ds [2]: 1.39 ± 0.15 um

CCC[C@@H]1C[C@@H](C(=O)N[C@@H]([C@H]2O[C@H](SC)[C@H](O)[C@@H](O)[C@H]2O)[C@@H](C)O)N(C)C1 [Lincomycin HCl]
rod outer segment growth distance Dg [1]: 1.32 ± 0.23 um | rod outer segment shedding distance Ds [2]: 0.55 ± 0.26 um

Reference: the supplement of paper PMC6143611
